# Structures can show the parent of a compound that is named as a salt. The list shows a part of the results. Hit calls seldom repeat between salt and free forms of one compound.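 Kinases were expressed as nanoluciferase fusions in K562 cells and luminescence was read every 4 h between 2 and 18 h as percent of control, DMSO set to 100% and a positive control to 0%. A time point counts as decreased when the signal drops significantly (2 sigma). The hit call is the authors' own, does not follow from the count of time points alone, and its rule is not shown.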
# Chains of the proteins cited; added tags and fusions are not shown.
# UniProt Q16288, whole entry, looked up: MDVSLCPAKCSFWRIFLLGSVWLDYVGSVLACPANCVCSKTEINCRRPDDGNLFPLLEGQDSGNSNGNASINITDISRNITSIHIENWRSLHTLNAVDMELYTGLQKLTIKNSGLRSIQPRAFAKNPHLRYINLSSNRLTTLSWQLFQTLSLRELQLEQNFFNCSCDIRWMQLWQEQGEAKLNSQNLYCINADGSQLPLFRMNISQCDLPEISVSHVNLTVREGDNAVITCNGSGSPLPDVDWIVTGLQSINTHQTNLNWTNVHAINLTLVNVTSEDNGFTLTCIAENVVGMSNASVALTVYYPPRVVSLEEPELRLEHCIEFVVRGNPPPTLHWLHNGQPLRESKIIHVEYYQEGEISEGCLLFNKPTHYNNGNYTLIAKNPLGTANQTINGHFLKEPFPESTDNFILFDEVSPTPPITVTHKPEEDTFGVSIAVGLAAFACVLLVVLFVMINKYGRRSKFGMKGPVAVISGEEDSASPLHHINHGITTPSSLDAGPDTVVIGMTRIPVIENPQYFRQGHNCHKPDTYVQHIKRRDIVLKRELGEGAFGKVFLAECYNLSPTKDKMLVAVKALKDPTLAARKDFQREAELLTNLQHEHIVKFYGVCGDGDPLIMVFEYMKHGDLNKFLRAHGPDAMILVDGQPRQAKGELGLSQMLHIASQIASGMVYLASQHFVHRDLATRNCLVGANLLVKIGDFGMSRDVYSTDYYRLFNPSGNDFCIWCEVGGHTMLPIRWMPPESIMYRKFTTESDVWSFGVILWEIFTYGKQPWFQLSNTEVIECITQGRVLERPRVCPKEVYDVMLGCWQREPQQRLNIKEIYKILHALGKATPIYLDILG
# Target: NTRK3 (UniProt Q16288)
# Test: number of time points (of 5) at which kinase-Nluc abundance scored as decreased, DMSO-normalised (count); higher = more persistent destabilization
# Details: K562; 2-18 h
row,SMILES,number of time points
1,Cc1cc(=O)oc2c(C=O)c(O)ccc12 (10 µM),0
2,Nc1nc(F)nc2c1ncn2[C@@H]1O[C@H](CO)[C@@H](O)[C@@H]1O [Fludarabine] (10 µM),0
3,CC(C)(C)c1cc(O)ccc1O (10 µM),0
4,COc1ccc(Cl)c(Nc2nc3ccccc3nc2NS(=O)(=O)c2cccc(NC(=O)C(C)(C)N)c2)c1 [Pilaralisib] (10 µM),0
5,Cc1ccc(CNc2ncnc3ccc(-c4ccc(CO)o4)cc23)o1 (10 µM),0
6,C=CC(=O)Nc1cccc(Nc2nc(Nc3ccc(N4CCN(C(C)=O)CC4)cc3OC)ncc2C(F)(F)F)c1 [Rociletinib] (10 µM),0
7,Nc1ncnc2c1c(-c1cccc(OCc3ccccc3)c1)cn2C1CC(CN2CCC2)C1 (stereo not drawn) (2.5 µM),0
8,Oc1cc(O)c2cc(O)c(-c3cc(O)c(O)c(O)c3)[o+]c2c1 [Delphinidin (chloride)] (10 µM),0
9,CCCS(=O)(=O)Nc1ccc(F)c(C(=O)c2c[nH]c3ncc(-c4ccc(Cl)cc4)cc23)c1F [Vemurafenib] (10 µM),1
10,COCCNc1nc2ccc(C#CC3(O)CCCCC3)cc2n1-c1ccnc(N)n1 (10 µM),0
11,CCC(C)N1c2ccccc2C(=O)N(C)c2cnc(Nc3ccc(C(=O)N4CCC(N5CCN(C)CC5)CC4)cc3OC)nc21 (stereo not drawn) (2.5 µM),0
12,Cc1cc(CN2CCN(c3c(Br)cnc4nc(-c5ccc(N6CCN(C)CC6)cc5)[nH]c34)CC2)no1 (2.5 µM),0
13,O=C(CSC1=NCCN1)NC1CCCCCC1 [ICCB-19 (hydrochloride)] (2.5 µM),0

# — the supplement of paper PMC12823440, “Inhibitors supercharge kinase turnover through native proteolytic circuits” (Nature, 2025)
